These are yes or no findings as the source states them, for the method shown. In cells and extracts the contact can be indirect. A yes stands for co-enrichment or nearness to the bait. Other partners may have been found. Sequences can lack the tags named with a protein.
Target: T1, SdhD subunit of M. smegmatis Sdh2 (membrane-anchored protein) with C-terminal 10x His tag (M. smegmatis) (UniProt A0QT09)
T1 sequence: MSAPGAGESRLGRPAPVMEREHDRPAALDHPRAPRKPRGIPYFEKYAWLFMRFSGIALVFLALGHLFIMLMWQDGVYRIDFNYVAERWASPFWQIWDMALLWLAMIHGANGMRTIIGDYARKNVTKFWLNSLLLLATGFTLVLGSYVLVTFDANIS
Assay: affinity purification with mass spectrometry; SdhD-10xHis as bait; 1% digitonin extract of M. smegmatis membranes on Ni-NTA, then Superdex 200 in 20 mM MOPS pH 7.4, 100 mM NaCl, 0.1% digitonin; components detected by SDS-PAGE and MS

Substance | binding
SdhA subunit of M. smegmatis Sdh2 (FAD-binding protein) | binds
SdhB subunit of M. smegmatis Sdh2 (iron-sulfur protein) | binds
SdhC subunit of M. smegmatis Sdh2 (membrane-anchored protein) | binds

Source: PMC7447783, “Cryo-EM structure of trimeric Mycobacterium smegmatis succinate dehydrogenase with a membrane-anchor SdhF” (Nature Communications, 2020)
